Data source: PubChem BioAssay AID1508588 (Peter MacCallum Cancer Centre, 2020)
The deposit covers about 18,000 reagents; below is a part drawn at random. Of all reagents, 790 (4.4%) were called active. 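Calls rest on a combination of fold-change classes in drug and vehicle arms, not all shown here.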

Aim: 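Knock-downs boosting vemurafenib effects on melanoma cell growth or lactate release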 (primary screen)
System: human WM266.4 melanoma cells (BRAF V600 mutant)
Reagent: siRNA pool against human genes, 40 nM
Time to read-out: 96 h from transfection to read-out
Challenge: vemurafenib 300 nM (about IC25), added 48 h after transfection, for 48 h; comparison arm got DMSO vehicle only
Read-out: 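Ratios to non-targeting siRNA for cell gain, counted as DAPI nuclei after minus before drug and averaged over two replicates, and for absorbance-read medium lactate per cell; both binned into fold-change classes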
Scale: cell gain with vemurafenib: higher = more cell gain than with non-targeting siRNA; lactate per cell with vemurafenib: higher = more lactate made per cell
Active means: 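Enhancement is called by pairing each knock-down's vehicle-arm and drug-arm fold-change classes for viability or glycolysis; which class combinations qualify is not given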
Calls: active = enhances vemurafenib effect; inactive = no enhancement seen

Target gene | cell gain with vemurafenib | lactate per cell with vemurafenib | Outcome
PRSS12 (GeneID 8492) | 0.33 | 1.26 | inactive
TTI2 (GeneID 80185) | 0.81 | 1.22 | inactive
GPRC5A (GeneID 9052) | 0.31 | 1.37 | inactive
ALDH1A3 (GeneID 220) | 0.31 | 0.62 | active
P4HB (GeneID 5034) | 0.79 | 1.21 | inactive
SDHAF1 (GeneID 644096) | 0.08 | 1.82 | inactive
EPB41L4B (GeneID 54566) | 0.6 | 0.76 | inactive
INTS6L (GeneID 203522) | 0.36 | 1.26 | inactive
RARB (GeneID 5915) | 0.38 | 1.17 | inactive
CT47A6 (GeneID 728062) | 1.01 | 0.41 | active
CDK8 (GeneID 1024) | 1.04 | 0.66 | inactive
POLR3GL (GeneID 84265) | 0.93 | 0.46 | inactive
NMNAT3 (GeneID 349565) | 0.16 | 1.27 | inactive
IGSF22 (GeneID 283284) | 1.09 | 0.7 | inactive
STK4 (GeneID 6789) | 0.84 | 0.83 | inactive
PCDHGA5 (GeneID 56110) | 0.59 | 1.1 | inactive
PRDM4 (GeneID 11108) | 0.85 | 1.29 | inactive
BEND6 (GeneID 221336) | 0.28 | 1.29 | inactive
CCL13 (GeneID 6357) | 0.64 | 0.54 | inactive
IPCEF1 (GeneID 26034) | 0.8 | 0.22 | inactive
LRRTM4 (GeneID 80059) | 0.74 | 0.54 | inactive
RNF144B (GeneID 255488) | 0.68 | 1.01 | inactive
LINC02914 (GeneID 283598) | 0.16 | 1.69 | inactive
COL10A1 (GeneID 1300) | 0.3 | 1.12 | inactive
ZNF606 (GeneID 80095) | 1.11 | 0.3 | inactive
NRBP2 (GeneID 340371) | 0.66 | 1.44 | inactive
MAGEC1 (GeneID 9947) | 0.44 | 1.01 | inactive
NCF2 (GeneID 4688) | 0.81 | 0.96 | inactive
SPRING1 (GeneID 79794) | 1.36 | 0.64 | inactive
PDE2A (GeneID 5138) | 0.68 | 0.75 | inactive

Continued, starting with the last 10 of the part before.
Target gene | cell gain with vemurafenib | lactate per cell with vemurafenib | Outcome
LRRTM4 (GeneID 80059) | 0.74 | 0.54 | inactive
RNF144B (GeneID 255488) | 0.68 | 1.01 | inactive
LINC02914 (GeneID 283598) | 0.16 | 1.69 | inactive
COL10A1 (GeneID 1300) | 0.3 | 1.12 | inactive
ZNF606 (GeneID 80095) | 1.11 | 0.3 | inactive
NRBP2 (GeneID 340371) | 0.66 | 1.44 | inactive
MAGEC1 (GeneID 9947) | 0.44 | 1.01 | inactive
NCF2 (GeneID 4688) | 0.81 | 0.96 | inactive
SPRING1 (GeneID 79794) | 1.36 | 0.64 | inactive
PDE2A (GeneID 5138) | 0.68 | 0.75 | inactive
AAR2 (GeneID 25980) | 0.42 | 1.26 | inactive
EDEM3 (GeneID 80267) | 0.68 | 0.5 | inactive
COL5A1 (GeneID 1289) | 0.27 | 0.33 | inactive
SAMD1 (GeneID 90378) | 0.58 | 0.83 | inactive
PEX26 (GeneID 55670) | 0.38 | 1.56 | inactive
SPPL2A (GeneID 84888) | 0.9 | 0.68 | inactive
ELOF1 (GeneID 84337) | 0.38 | 0.94 | inactive
FAM171B (GeneID 165215) | 0.99 | 0.66 | inactive
MAVS (GeneID 57506) | 0.39 | 1.51 | inactive
MCUR1 (GeneID 63933) | 1.08 | 0.63 | inactive
ADGRL1 (GeneID 22859) | 0.79 | 0.78 | inactive
UPK3A (GeneID 7380) | 0.62 | 0.73 | inactive
SGPL1 (GeneID 8879) | 0.44 | 0.94 | inactive
IL4I1 (GeneID 259307) | 0.57 | 1.38 | inactive
AMIGO1 (GeneID 57463) | 0.91 | 0.93 | inactive
ACACA (GeneID 31) | 0.63 | 0.75 | inactive
CA4 (GeneID 762) | 0.47 | 1.23 | inactive
PHF20 (GeneID 51230) | 1.07 | 0.68 | inactive
CCNI2 (GeneID 645121) | 0.41 | 1.21 | inactive
SAFB2 (GeneID 9667) | 0.56 | 0.72 | inactive
TOGARAM2 (GeneID 165186) | 0.38 | 0.57 | inactive
SPIB (GeneID 6689) | -0.05 | 3.39 | inactive
RANGRF (GeneID 29098) | 0.74 | 0.94 | inactive
ING4 (GeneID 51147) | 0.51 | 0.47 | inactive
RAB11FIP1 (GeneID 80223) | 0.77 | 0.46 | active
ALDH1L2 (GeneID 160428) | 0.11 | 1.3 | inactive
FAM110C (GeneID 642273) | -0.15 | 0.02 | active
PNPLA2 (GeneID 57104) | 0.67 | 1.06 | inactive
NLE1 (GeneID 54475) | 0.52 | 1.38 | inactive
PPM1B (GeneID 5495) | 0.79 | 0.4 | inactive
TSR3 (GeneID 115939) | 0.47 | 1.02 | inactive
ADRA1A (GeneID 148) | 0.97 | 1.02 | inactive
ADTRP (GeneID 84830) | 0.38 | 0.15 | active
PLAG1 (GeneID 5324) | 0.59 | 1.12 | inactive
UNC119B (GeneID 84747) | 0.77 | 0.88 | inactive
DYNC2I2 (GeneID 89891) | 0.82 | 1.26 | inactive
SLC22A7 (GeneID 10864) | 0.47 | 1.06 | inactive
ZHX2 (GeneID 22882) | 0.38 | 1.75 | inactive
NREP (GeneID 9315) | 0.05 | 2.16 | inactive
MXD1 (GeneID 4084) | 0.26 | 0.92 | inactive
ANO7 (GeneID 50636) | 0.72 | 0.53 | inactive
CA13 (GeneID 377677) | 0.69 | 0.96 | inactive
FAM209A (GeneID 200232) | 0.67 | 0.44 | inactive
SYNPO (GeneID 11346) | 0.68 | 1.3 | inactive
TLE3 (GeneID 7090) | 0.45 | 1.53 | inactive
VEGFA (GeneID 7422) | 1.06 | 0.78 | inactive
PBOV1 (GeneID 59351) | 0.71 | 0.69 | inactive
KYNU (GeneID 8942) | 0.57 | 1.36 | inactive
SAMTOR (GeneID 154743) | 0.34 | 0.8 | inactive
TFPT (GeneID 29844) | 0.86 | 0.92 | inactive
PRKY (GeneID 5616) | 0.34 | 2 | inactive
TRMT13 (GeneID 54482) | 0.65 | 0.62 | inactive
PSMA4 (GeneID 5685) | 0.01 | 1.65 | inactive
ARMCX2 (GeneID 9823) | 1.09 | 0.61 | inactive
